Not every detail of the peptide structures is certain; ends, links or a residue may be inferred. No end group written: not given here.
Tests used:
Assay type in all cases: cell-based, human
THP-1 cells [1] = assay: Cell viability by trypan blue staining and manual counts, THP-1; settings: peptides added at 4 hour intervals for a period of 12 hours
THP-1 cells [2] = assay: Clonogenic assay in methylcellulose, THP-1; settings: 300 μM, in comparison to the scrambled control peptide
[3] = system: primary AML mononuclear cells derived from peripheral blood; assay: AML clonogenic assay in methylcellulose, primary cells; settings: 300 μM for 4 hours, colonies scored after 14 days
HL60 cells = assay: Cell viability by trypan blue staining and manual counts, HL60; settings: 300 μM
THP-1 cells [4] = assay: Cell cycle analysis by propidium iodide staining and flow cytometry; settings: 300 μM
THP-1 cells [5] = assay: Flow cytometric determination of cell death (Annexin V/DAPI); settings: 300 μM, 24 hours after initial treatment
Protocol: FIG. 8. IL1RAP blockade causes cell death of IL1RAP dependent human leukemia cells. THP1 cells were exposed to 300 μM IL1RAP peptides (P1 and P2), scrambled control peptide (scrambled), peptide buffer (vehicle) or left untreated (UT) and evaluated for cell viability determined by Annexin V/DAPI staining and flow cytometry. The results are expressed as percentage of total cells.
In order to determine viability after peptide treatment, 1×10^4 THP-1 cells were washed with PBS and mixed with pre-diluted PE-conjugated Annexin V (BD Pharmigen) and DAPI. Cells were stained at room temperature for 15 minutes and suspended in 0.2 ml of Annexin V-FLUOS incubation buffer (Roche) for analysis.

phospho-STAT3 = assay: Western blot of phospho-STAT3 in THP-1 cells; settings: 48 hs after the initial treatment
phospho-FLT3 = assay: Western blot of phospho-FLT3 in THP-1 cells
THP-1 cells [6] = assay: Cell morphology (cytospin, Diff-Quick staining); settings: THP-1 cells that remained viable after 24 hours of treatment
Protocol: FIG. 9. IL1RAP blockade changes in cell morphology of IL1RAP dependent human leukemia cells. THP1 cells were exposed to 100 μM IL1RAP peptide P2, scrambled control peptide (scrambled), peptide buffer (vehicle) or left untreated and evaluated for cell morphology.
1×10^4 THP-1 cells after treatment with peptides were rinsed with PBS and 0.1 ml of cell suspension was cytospun onto polylysine coated slides at minimum speed for 4 minutes in a cytocentrifuge (StatSpin Cytofuge). Slides were stained according to manufacturer's protocol using the Romanowsky staining Diff-Quick (IMEB) kit. Cells were imaged with an Axiovert 200M microscope (Zeiss) and Olympus SZ61 microscope.

phospho-IRAK1 = assay: Western blot of phospho-IRAK1 in THP-1 cells; settings: 48 hours after treatment, increasing concentrations, in comparison with scrambled control peptide

Sequence | cell viability and growth (THP-1 cells [1]) | leukemic colony formation (THP-1 cells [2]) | clonogenic potential (colony formation capacity) [3] | cell growth (cell viability) (HL60 cells) | subG0 by PI staining (THP-1 cells [4]) | cell cycle arrest in G2 (THP-1 cells [4]; propidium iodide staining) | apoptosis as determined by Annexin V/DAPI staining (THP-1 cells [5]) | cells considered apoptotic (DAPI+/Annexin V+) (THP-1 cells [5]) [%] | levels of phospho-STAT3 (phospho-STAT3) | phosphorylation levels of phospho-FLT3 (phospho-FLT3) | cell morphology (THP-1 cells [6]) | phosphorylation levels of IRAK1 (phospho-IRAK1)
AGDKDRLIVMENKPTHGID [Peptide P2, AGDKDRLIVMENKPTHGID] | caused loss of viability and growth suppression | inhibition of leukemic colony formation | reduced clonogenic potential | reduce cell growth | increase of subG0 | moderate cell cycle arrest in G2 | increase of apoptosis | 39 | to a greater extent than with IL1RAP peptide P1 | reduced phosphorylation levels | substantial changes in morphology | –
AGDKDRLIVMENKPTRPV [Peptide P1, AGDKDRLIVMENKPTRPV] | caused loss of viability and growth suppression | inhibition of leukemic colony formation | reduced clonogenic potential | reduce cell growth | – | – | increase of apoptosis | 35 | – | reduced phosphorylation levels | substantial changes in morphology | profound concentration dependent reduction of phospho-IRAK1

— patent US11137397B2, “Peptides for blocking IL1RAP protein-protein interaction and uses thereof for treatment of disease” (Albert Einstein College of Medicine, priority 2014, dated 2021)
